Common to all, as to assay: pull-down; GST-tagged bait on glutathione-agarose beads blocked with 5% BSA; 1 mL E. coli lysate with overexpressed His-tagged prey, 2 h at 4°C; seven washes with high salt buffer (500 mM KCl, 20 mM TRIS-HCl pH 7.0, 0.1% Triton X-100; results say 500 mM NaCl); anti-His Western blot; only the target purified
In general terms: Immunoblotting shows a protein as a band on a membrane.

Experiment [1] concerns the target T1, GST-CopD_(1–137) (Chlamydia pneumoniae CWL029) (UniProt Q9Z798).
T1 sequence: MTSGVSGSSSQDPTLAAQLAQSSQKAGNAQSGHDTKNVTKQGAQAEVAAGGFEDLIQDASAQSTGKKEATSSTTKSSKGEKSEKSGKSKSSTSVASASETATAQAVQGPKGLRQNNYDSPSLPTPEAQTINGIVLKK

Experiment [2] addresses T2, GST-CopD_(227–444) (Chlamydia pneumoniae CWL029) (UniProt Q9Z798).
T2 sequence: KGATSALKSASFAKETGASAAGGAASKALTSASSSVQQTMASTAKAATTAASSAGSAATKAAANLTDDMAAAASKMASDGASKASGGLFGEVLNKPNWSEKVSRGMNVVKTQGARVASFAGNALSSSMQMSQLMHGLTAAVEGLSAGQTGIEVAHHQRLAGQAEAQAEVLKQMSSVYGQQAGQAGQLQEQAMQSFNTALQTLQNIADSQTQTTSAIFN

For experiment [3], the target named is T3, GST-CopD_(1–157) (Chlamydia pneumoniae CWL029) (UniProt Q9Z798).
T3 sequence: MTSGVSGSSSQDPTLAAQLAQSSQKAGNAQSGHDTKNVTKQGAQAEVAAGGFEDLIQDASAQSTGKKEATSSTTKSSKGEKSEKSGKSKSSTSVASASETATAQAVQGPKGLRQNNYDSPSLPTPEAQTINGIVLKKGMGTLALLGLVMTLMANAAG

No constants are given. Whether binding was seen depends on the method and setting. Binding seen in cells or lysates may run through a third protein. For part of these data: A result given as binding can be weak or reduced; the word gives no strength. Tags and fused reporters may be left off the sequences shown.

As to “His-LcrH_1 (Chlamydia pneumoniae CWL029)”, the binding result in experiment [1] was “no binding”; in experiment [2] it was “no binding”; in experiment [3], “binds”.
